According to PMC5146272, “Structure of the RBM7–ZCCHC8 core of the NEXT complex reveals connections to splicing factors” (Nature Communications, 2016):
These are yes or no findings as the source states them, for the method shown. Binding seen in cells or lysates may run through a third protein. Some results given as binding are weak or reduced against the parent protein; the word gives no strength. Tags and fused reporters may be left off the sequences shown.

Chains of the proteins cited; added tags and fusions are not shown. Residues count along the entry.
UniProt Q13435, residues 603-647: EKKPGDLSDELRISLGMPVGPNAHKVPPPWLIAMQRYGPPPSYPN

T1: MBP-RBM7^1–86 (human) (UniProt Q9Y580)
T1 sequence: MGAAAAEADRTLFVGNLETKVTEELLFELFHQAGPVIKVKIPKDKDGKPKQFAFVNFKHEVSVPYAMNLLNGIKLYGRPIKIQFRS

T2: GST-tagged hMTR4 (human) (UniProt P42285)
T2 sequence: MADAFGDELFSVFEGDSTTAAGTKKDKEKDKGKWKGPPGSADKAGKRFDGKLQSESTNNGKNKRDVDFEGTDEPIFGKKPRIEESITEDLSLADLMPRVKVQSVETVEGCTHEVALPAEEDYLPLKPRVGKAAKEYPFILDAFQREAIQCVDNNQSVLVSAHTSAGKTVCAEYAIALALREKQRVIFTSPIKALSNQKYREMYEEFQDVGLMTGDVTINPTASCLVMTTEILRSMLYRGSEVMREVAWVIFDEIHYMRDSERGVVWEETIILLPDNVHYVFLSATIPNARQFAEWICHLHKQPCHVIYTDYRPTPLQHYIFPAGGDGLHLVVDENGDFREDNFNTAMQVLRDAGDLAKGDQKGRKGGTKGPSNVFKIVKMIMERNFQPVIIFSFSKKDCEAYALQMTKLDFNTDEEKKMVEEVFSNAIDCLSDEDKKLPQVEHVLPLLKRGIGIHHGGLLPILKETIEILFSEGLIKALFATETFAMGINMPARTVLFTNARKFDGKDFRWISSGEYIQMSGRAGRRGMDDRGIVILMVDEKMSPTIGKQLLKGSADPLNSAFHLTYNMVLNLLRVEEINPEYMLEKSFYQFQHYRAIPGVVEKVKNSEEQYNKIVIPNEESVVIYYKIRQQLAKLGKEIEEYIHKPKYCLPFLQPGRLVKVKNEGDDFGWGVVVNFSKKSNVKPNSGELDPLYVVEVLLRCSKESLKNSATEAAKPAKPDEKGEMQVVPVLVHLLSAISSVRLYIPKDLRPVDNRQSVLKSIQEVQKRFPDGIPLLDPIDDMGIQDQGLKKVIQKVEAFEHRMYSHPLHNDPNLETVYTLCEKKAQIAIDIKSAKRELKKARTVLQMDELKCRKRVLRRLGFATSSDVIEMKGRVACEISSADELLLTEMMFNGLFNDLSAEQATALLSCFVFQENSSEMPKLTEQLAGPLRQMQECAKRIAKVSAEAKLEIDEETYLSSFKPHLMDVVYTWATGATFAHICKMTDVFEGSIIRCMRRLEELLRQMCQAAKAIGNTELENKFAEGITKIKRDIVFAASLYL

B1: His-Z-tagged RBM7^1–86 (domain or fragment, UniProt Q9Y580 1-86)
chain: MGAAAAEADRTLFVGNLETKVTEELLFELFHQAGPVIKVKIPKDKDGKPKQFAFVNFKHEVSVPYAMNLLNGIKLYGRPIKIQFRS
B2: RBM7^RRM patch 1 mutant (Leu25Glu and Leu29Glu) (domain or fragment, UniProt Q9Y580 1-86)
chain: MGAAAAEADRTLFVGNLETKVTEEELFEEFHQAGPVIKVKIPKDKDGKPKQFAFVNFKHEVSVPYAMNLLNGIKLYGRPIKIQFRS
B3: Z-tagged ZCCHC8 (protein, UniProt Q6NZY4 1-707)
chain: MAAEVYFGDLELFEPFDHPEESIPKPVHTRFKDDDGDEEDENGVGDAELRERLRQCEETIEQLRAENQELKRKLNILTRPSGILVNDTKLDGPILQILFMNNAISKQYHQEIEEFVSNLVKRFEEQQKNDVEKTSFNLLPQPSSIVLEEDHKVEESCAIKNNKEAFSVVGSVLYFTNFCLDKLGQPLLNENPQLSEGWEIPKYHQVFSHIVSLEGQEIQVKAKRPKPHCFNCGSEEHQMKDCPMPRNAARISEKRKEYMDACGEANNQNFQQRYHAEEVEERFGRFKPGVISEELQDALGVTDKSLPPFIYRMRQLGYPPGWLKEAELENSGLALYDGKDGTDGETEVGEIQQNKSVTYDLSKLVNYPGFNISTPRGIPDEWRIFGSIPMQACQQKDVFANYLTSNFQAPGVKSGNKRSSSHSSPGSPKKQKNESNSAGSPADMELDSDMEVPHGSQSSESFQFQPPLPPDTPPLPRGTPPPVFTPPLPKGTPPLTPSDSPQTRTASGAVDEDALTLEELEEQQRRIWAALEQAESVNSDSDVPVDTPLTGNSVASSPCPNELDLPVPEGKTSEKQTLDEPEVPEIFTKKSEAGHASSPDSEVTSLCQKEKAELAPVNTEGALLDNGSVVPNCDISNGGSQKLFPADTSPSTATKIHSPIPDMSKFATGITPFEFENMAESTGMYLRIRSLLKNSPRNQQKNKKASE

Legend:
MBP-RBM7^1–86 (human) = target: T1, MBP-RBM7^1–86 (human); assay: pull-down; MBP-RBM7 1-86, GST-ZCCHC8^Pro and TRX-SAP145^Pro co-expressed; MBP-binding amylose beads
[1] = target: GST-tagged SAP145^Pro (SAP145 residues 603–647) (UniProt Q13435); assay: pull-down; GST pull-down; GST-tagged bait co-expressed with the partner in bacteria; glutathione sepharose beads with lysate 2 h, 20 mM Tris/HCl pH 7.5, 500 mM NaCl, 0.1% NP40; eluted with 30 mM glutathione; Coomassie-stained SDS-PAGE
GST-tagged hMTR4 (human) = target: T2, GST-tagged hMTR4 (human); assay: pull-down; GST pull-down; proteins expressed individually in bacteria, cells mixed before lysis; GSH-Sepharose beads, buffer with 500 mM NaCl; Coomassie-stained SDS-PAGE

Molecule	binding [1]	other results
TRX-SAP145^Pro (from UniProt Q13435 603-647) (domain or fragment)		binding (MBP-RBM7^1–86 (human)): binds
B1	binds	
B2	binds	
B3		binding (GST-tagged hMTR4 (human)): binds
